According to PubChem BioAssay AID485314 (National Center for Advancing Translational Sciences (NCATS), 2010):
Screen size: about 340,000 compounds; about 4,500 (1.3%) were called active. The inconclusive results got no clear call from the source; some entries with a clear call stand among them for comparison. The call rests on the fitted dose curve; in most records, active means well fitted inhibition curve with a large enough effect; inconclusive means small, poorly fitted or top-dose-only effect, or another doubt; inactive means no such curve, though single readings can be large or run the other way. Potencies beside an inconclusive call are fits to weak or partial responses and may not hold up.
On the % scale 0 is the no-effect control and ±100 the full control effect; potency means the concentration at half of the fitted maximal effect.

The molecules below were run against DNA polymerase beta (Homo sapiens) (UniProt P06746) (assay: qHTS Assay for Inhibitors of DNA Polymerase Beta). Conditions: Pol beta primer extension/strand displacement, fluorescence kinetic; activity change, negative = inhibition: at 114 µM (top of the series).
In short: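 Pol beta (10 nM) and compounds were preincubated 15 min at room temperature, then 50 nM substrate (final) started primer extension/strand displacement. Reads were taken at 0 and 10 min; concentration-response data were fitted to a four-parameter Hill equation.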
Fc1ccc(-c2cc(-c3nc(-c4ccccc4)no3)[nH]n2)cc1 was tested, and the “activity change, negative = inhibition” value was inactive: -20.1%.
For CCC(=O)N1c2ccccc2CC1C(=O)NCCc1ccccc1Cl (stereo not drawn), the “activity change, negative = inhibition” value was inactive: -1.63%.
In the case of COc1cccc(-c2csc(NC(=O)Nc3ccccc3)n2)c1, the activity change, negative = inhibition is reported as inconclusive: -34.5% [inhibitor].
In the case of O=C(CSc1nc2ccsc2c(=O)n1NC(=O)c1ccccc1)NCc1ccco1, the Potency is reported as inconclusive: 35.5 µM [inhibitor, partial curve].
For O=C(Nc1ccccc1)c1cccc(S(=O)(=O)Oc2ccc([N+](=O)[O-])cc2)c1, the Potency was inconclusive: 3.16 µM [inhibitor, single point].
With CCC(=O)N1CCc2cc(S(=O)(=O)NC(C(=O)NCc3ccccc3Cl)C(C)C)ccc21 (stereo not drawn) the “activity change, negative = inhibition” value was inactive: 22.8%.
With O=C(NCc1ccc(F)cc1)c1cc(Sc2ccc(F)cc2F)nc2ccccc12 the “activity change, negative = inhibition” value was inactive: 0.569%.
For O=C(Cn1cnc2c(nnn2Cc2ccc(Cl)cc2)c1=O)c1ccccc1, the Potency was inconclusive: 35.5 µM [inhibitor, full curve, poor fit].
Cc1ccc(C)c(NS(=O)(=O)c2ccc3oc(=O)c4ncn(C)c4c3c2)c1 was tested, and the Potency was inconclusive: 89.1 µM [inhibitor, single point].
In the case of COc1cc(/C=N/N2C(=O)CSC2=S)cc(Br)c1O, the Potency is reported as active: 35.5 µM.
For CCn1c(=O)c2sccc2n2c(CCC(=O)Nc3ccc(C(C)C)cc3)nnc12, the Potency was inconclusive: 39.8 µM [inhibitor, single point].
With COc1ccc(CCn2c(NN)nc3c2c(=O)[nH]c(=O)n3C)cc1 the “activity change, negative = inhibition” value was inactive: 7.56%.
Cc1ccc(CNC(=O)Cn2ccn(-c3ccc(F)cc3)c(=O)c2=O)cc1 was tested, and the “activity change, negative = inhibition” value was inactive: -22.8%.
In the case of CCOc1ccc(NC(=O)c2sc(NC(C)=O)c(C(=O)OC)c2C)cc1, the “activity change, negative = inhibition” value is reported as inactive: -11.4%.
For Cc1ccc(/C=N/NC(=O)c2ccc3nc[nH]c3c2)s1, the Potency was inconclusive: 25.1 µM [inhibitor, partial curve].
In the case of C/C(=N\Nc1nc(-c2cc(C)ccc2C)cs1)c1cc2c(ccc3ccccc32)oc1=O, the Potency is reported as inconclusive: 44.7 µM [inhibitor, partial curve].
For COc1ccc(NC(=O)c2cc3c(=O)n(Cc4cccnc4)ccc3nc2C)c(OC)c1, the “activity change, negative = inhibition” value was inactive: -19.9%.
For Cc1ccc(NC(=O)COCC(=O)Nc2ccc(C)cc2)cc1, the “activity change, negative = inhibition” value was inactive: 0.158%.
With CCOC(=O)Cc1ccc2sc(-c3ccccc3)nc2c1 the “activity change, negative = inhibition” value was inactive: 3.02%.
In the case of COc1ccccc1NS(=O)(=O)c1cc(NC(=O)c2ccco2)ccc1N1CCOCC1, the Potency is reported as inconclusive: 28.2 µM [inhibitor, single point].
In the case of CN1CCN(Cc2nc3ccccc3c(=O)n2Cc2nc(-c3ccc4ccccc4c3)cs2)CC1, the Potency is reported as inconclusive: 39.8 µM [inhibitor, partial curve].
In the case of O=C(CCCCCN1C(=O)c2ccccc2C1=O)Nc1cccc(O)c1, the Potency is reported as inconclusive: 1.26 µM [inhibitor, full curve, poor fit].
COC(=O)c1cc2c(N)c(C(=O)c3ccc(Cl)cc3)sc2nc1C(OC)OC was tested, and the Potency was inconclusive: 79.4 µM [inhibitor, single point].
With C=CCN1C(=O)/C(=C/C=C2/N(CC)c3ccc(S(=O)(=O)N(C)C)cc3N2CC)SC1=S the Potency was active: 4.47 µM.
COC(=O)c1ccc(-n2c(/C=C/c3cc(OC)c(OC)c(OC)c3)nc3cc(Cl)ccc3c2=O)cc1 was tested, and the “activity change, negative = inhibition” value was inactive: -0.013%.
Cc1cccc2c(=O)cc(CSc3ccccc3NC(=O)C(C)(C)C)[nH]c12 was tested, and the “activity change, negative = inhibition” value was inactive: -9.62%.
O=C1C(Cl)=C(N2CCCCC2)C(=O)C(Cl)=C1c1cnc(N2CCCCC2)s1 was tested, and the Potency was active: 5.62 µM.
CC(=C/c1ccccc1)/C=N/NC(=O)c1ccc2nc[nH]c2c1 was tested, and the Potency was active: 31.6 µM.
In the case of Cc1cccc(C)c1-n1c(=O)n(Cc2ccccc2)c(=O)c2[nH]cnc21, the Potency is reported as inconclusive: 89.1 µM [inhibitor, partial curve].
For O=C(Nc1cccc(-c2nn[nH]n2)c1)c1ccc(Cl)s1, the Potency was inconclusive: 25.1 µM [inhibitor, single point].
For CCOC(=O)C1CCCN(C(=O)c2ccc3nc(-c4cccc(OC)c4)oc3c2)C1 (stereo not drawn), the Potency was inconclusive: 89.1 µM [inhibitor, single point].
COc1cc2cc(C(=O)N/N=C/c3ccccc3Cl)[nH]c2cc1OC was tested, and the Potency was inconclusive: 15.8 µM [inhibitor, single point].
In the case of O=C(Nc1ccc(Br)cn1)c1cccc(-c2cc3ccccc3oc2=O)c1, the Potency is reported as inconclusive: 14.1 µM [inhibitor, full curve].
In the case of COc1cc(/C=C2\SC(=O)N(c3cccc(Cl)c3)C2=O)cc([N+](=O)[O-])c1O, the Potency is reported as active: 6.31 µM.
With COc1ccc(C2CC(=O)N3CN(Cc4ccco4)CSC3=C2C#N)cc1 (stereo not drawn) the Potency was inconclusive: 89.1 µM [inhibitor, single point].
In the case of CCOc1ccccc1NC(=O)CSc1ccc2nc(-c3ccccc3)cn2n1, the Potency is reported as inconclusive: 79.4 µM [inhibitor, single point].
For O=C1c2ccccc2CCCC12N=NCC2c1cccc2ccccc12 (stereo not drawn), the Potency was inconclusive: 5.62 µM [inhibitor, full curve, poor fit].
COc1ccc2nc(C)cc(Nc3ccc(N4CCOCC4)cc3)c2c1 was tested, and the Potency was inconclusive: 44.7 µM [inhibitor, partial curve].
For O=S(=O)(c1ccc(S(=O)(=O)N2CCOCC2)cc1)N1CCCC1, the Potency was inconclusive: 8.91 µM [inhibitor, partial curve, poor fit].
In the case of O=C(CSc1ccc(-c2nc3ccccc3[nH]2)cn1)N1CCN(C(=O)c2ccco2)CC1, the Potency is reported as inconclusive: 39.8 µM [inhibitor, partial curve].
For Cc1cc(C)cc(NC(=O)c2cccc(C(=O)Nc3cc(C)cc(C)c3)c2)c1, the “activity change, negative = inhibition” value was inactive: 10.2%.
For Oc1ccc(-c2csc(Nc3cccc4ccccc34)n2)cc1O, the Potency was inconclusive: 15.8 µM [inhibitor, partial curve, poor fit].
With COc1ccc(/C=C2\C(=O)NC(=S)N2C(=O)c2ccc(C)cc2)cc1 the Potency was active: 20 µM.
With CC1CCN(C(=O)CSc2nnc(NC(=O)Nc3ccccc3)s2)CC1 the “activity change, negative = inhibition” value was inactive: 2.23%.
CCO/C=C1\SC(=S)N(c2ccc(Cl)cc2)C1=O was tested, and the Potency was inconclusive: 28.2 µM [inhibitor, partial curve].
In the case of CCOC(=O)NC1(NCC(C)C)Oc2ccccc2O1, the Potency is reported as inconclusive: 2.51 µM [inhibitor, full curve].
COc1cccc(N=c2oc3ccc(OC)cc3cc2-c2nc3ccccc3[nH]2)c1 was tested, and the Potency was inconclusive: 3.16 µM [inhibitor, full curve].
With Cc1ccc(-c2nnn(CC(=O)N(c3ccccc3)C(C(=O)NC3CCCC3)c3ccco3)n2)o1 (stereo not drawn) the Potency was inconclusive: 89.1 µM [inhibitor, single point].
CCc1cccc(CC)c1NC(=O)Cn1nnc2sc3c(c2c1=O)CCCC3 was tested, and the Potency was inconclusive: 39.8 µM [inhibitor, partial curve].
With O=c1nccc(Nc2ccccc2)[nH]1 the Potency was inconclusive: 4.47 µM [inhibitor, single point].
Cc1ccc(NC(=O)c2c(C)nn(-c3ccccc3)c2-n2cccc2)c(Cl)c1 was tested, and the “activity change, negative = inhibition” value was inactive: 3.18%.
In the case of C=C(C)CN(CC)C(=O)CN1C(=O)NC(C)(c2ccc3ccccc3c2)C1=O (stereo not drawn), the Potency is reported as inconclusive: 89.1 µM [inhibitor, single point].
With Nc1nc(N)c(N=Nc2ccc(S(N)(=O)=O)cc2)c(=O)[nH]1 the Potency was inconclusive: 39.8 µM [inhibitor, single point].
With COc1cc(/C=C2/SC(=S)N(CC3CCCO3)C2=O)ccc1O (stereo not drawn) the Potency was inconclusive: 7.94 µM [inhibitor, partial curve].
In the case of CN(C)c1ccc(CNC(=O)C2CCN(S(=O)(=O)c3ccc4[nH]c(=O)ccc4c3)CC2)cc1, the “activity change, negative = inhibition” value is reported as inactive: 3.56%.
In the case of CCOc1ccccc1C(=O)NCc1ccc2c(c1)CCN2C(=O)c1ccccc1, the “activity change, negative = inhibition” value is reported as inactive: 3.81%.
With O=C(O)c1ccc(CSc2nc(-c3ccc(Cl)cc3)cc(C(F)(F)F)n2)cc1 the Potency was active: 89.1 µM.
COc1cccc(-c2nc3c(C#N)c[nH]n3c2NC2CCC(C)CC2)c1 (stereo not drawn) was tested, and the “activity change, negative = inhibition” value was inactive: 19.3%.
With Nc1ccc(C(=O)O)cc1[N+](=O)[O-] the “activity change, negative = inhibition” value was inactive: 2.86%.
In the case of Clc1cccc(-n2ncc3c(NCCCN4CCOCC4)ncnc32)c1, the “activity change, negative = inhibition” value is reported as inactive: -14.7%.
COc1ccc(/C=C2\SC(=S)N(CC(=O)Nc3nnc(C)s3)C2=O)cc1 was tested, and the Potency was inconclusive: 39.8 µM [inhibitor, single point].
With CCOC(=O)C1CCN(Cc2cc(=O)n3c(-c4ccccc4)csc3n2)CC1 the “activity change, negative = inhibition” value was inactive: -9.46%.
With O=S(=O)(NCC1(N2CCOCC2)CCCCC1)c1ccc(Cl)cc1C(F)(F)F the Potency was inconclusive: 100 µM [inhibitor, single point].
With Cc1ccc(NC(=O)CC(=O)Nc2ccc(C)cc2C)c(C)c1 the “activity change, negative = inhibition” value was inactive: 38.8%.
In the case of CCCN(CCC)C(=O)c1nn(C)c2c1CSc1ccccc1-2, the “activity change, negative = inhibition” value is reported as inactive: -0.143%.
With C=CCOc1ccc(C(c2c(C(=O)O)[nH]c3ccccc23)c2c(C(=O)O)[nH]c3ccccc23)cc1 the Potency was active: 20 µM.
COc1cc(OC)cc(N2C(=O)CC(N3CCC(C(=O)N4CCCCC4)CC3)C2=O)c1 (stereo not drawn) was tested, and the Potency was active: 20 µM.
With Nc1nc(-c2ccco2)nn1C(=O)c1ccccc1Cl the Potency was inconclusive: 89.1 µM [inhibitor, single point].
In the case of Cc1ccc(NC(=O)C2CCCN2S(=O)(=O)c2ccc3nc(-c4ccccc4)[nH]c3c2)cc1C (stereo not drawn), the “activity change, negative = inhibition” value is reported as inactive: -32.7%.
In the case of Cc1ccc(-c2nn(-c3ccccc3)cc2C(=O)O)o1, the Potency is reported as active: 15.8 µM.
N#CCn1cnc2sc(-c3ccccc3)cc2c1=O was tested, and the Potency was inconclusive: 14.1 µM [inhibitor, full curve, poor fit].
With Cc1ccc(NC(=O)CSc2nc3ccccc3n2CC(=O)N(C)C2CCCCC2)cc1C the “activity change, negative = inhibition” value was inactive: -22.9%.
With O=C(NCCCN1CCOCC1)[C@@H]1CSC2c3ccccc3C(=O)N21 (stereo partly drawn) the Potency was inconclusive: 79.4 µM [inhibitor, single point].
